Results taken from the supplement of paper PMC10849652.
This is one part of the list.

Amino acid sequences for entries named in this document (tags omitted). A change or cut given only in a name is not applied to a line headed by its entry.
UniProt Q8IYL2: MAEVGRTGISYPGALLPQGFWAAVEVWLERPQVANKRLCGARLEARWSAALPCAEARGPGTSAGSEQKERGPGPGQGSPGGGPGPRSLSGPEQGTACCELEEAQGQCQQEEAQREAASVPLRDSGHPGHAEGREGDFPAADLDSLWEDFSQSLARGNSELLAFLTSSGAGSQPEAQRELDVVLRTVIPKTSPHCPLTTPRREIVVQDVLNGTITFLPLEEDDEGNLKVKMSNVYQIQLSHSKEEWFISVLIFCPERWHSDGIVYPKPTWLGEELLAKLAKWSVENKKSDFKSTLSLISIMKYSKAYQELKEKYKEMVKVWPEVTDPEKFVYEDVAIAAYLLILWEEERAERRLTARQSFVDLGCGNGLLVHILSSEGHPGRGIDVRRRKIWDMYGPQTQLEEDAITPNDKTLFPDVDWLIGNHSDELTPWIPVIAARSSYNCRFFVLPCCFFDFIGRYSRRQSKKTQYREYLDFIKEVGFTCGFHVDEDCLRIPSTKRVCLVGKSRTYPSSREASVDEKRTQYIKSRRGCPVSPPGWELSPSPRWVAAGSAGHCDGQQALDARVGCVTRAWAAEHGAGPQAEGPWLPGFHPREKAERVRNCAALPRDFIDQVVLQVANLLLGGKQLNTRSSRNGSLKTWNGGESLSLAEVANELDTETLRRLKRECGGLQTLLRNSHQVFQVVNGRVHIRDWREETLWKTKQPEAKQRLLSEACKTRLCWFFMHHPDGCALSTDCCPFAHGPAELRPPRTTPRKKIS
UniProt Q15714: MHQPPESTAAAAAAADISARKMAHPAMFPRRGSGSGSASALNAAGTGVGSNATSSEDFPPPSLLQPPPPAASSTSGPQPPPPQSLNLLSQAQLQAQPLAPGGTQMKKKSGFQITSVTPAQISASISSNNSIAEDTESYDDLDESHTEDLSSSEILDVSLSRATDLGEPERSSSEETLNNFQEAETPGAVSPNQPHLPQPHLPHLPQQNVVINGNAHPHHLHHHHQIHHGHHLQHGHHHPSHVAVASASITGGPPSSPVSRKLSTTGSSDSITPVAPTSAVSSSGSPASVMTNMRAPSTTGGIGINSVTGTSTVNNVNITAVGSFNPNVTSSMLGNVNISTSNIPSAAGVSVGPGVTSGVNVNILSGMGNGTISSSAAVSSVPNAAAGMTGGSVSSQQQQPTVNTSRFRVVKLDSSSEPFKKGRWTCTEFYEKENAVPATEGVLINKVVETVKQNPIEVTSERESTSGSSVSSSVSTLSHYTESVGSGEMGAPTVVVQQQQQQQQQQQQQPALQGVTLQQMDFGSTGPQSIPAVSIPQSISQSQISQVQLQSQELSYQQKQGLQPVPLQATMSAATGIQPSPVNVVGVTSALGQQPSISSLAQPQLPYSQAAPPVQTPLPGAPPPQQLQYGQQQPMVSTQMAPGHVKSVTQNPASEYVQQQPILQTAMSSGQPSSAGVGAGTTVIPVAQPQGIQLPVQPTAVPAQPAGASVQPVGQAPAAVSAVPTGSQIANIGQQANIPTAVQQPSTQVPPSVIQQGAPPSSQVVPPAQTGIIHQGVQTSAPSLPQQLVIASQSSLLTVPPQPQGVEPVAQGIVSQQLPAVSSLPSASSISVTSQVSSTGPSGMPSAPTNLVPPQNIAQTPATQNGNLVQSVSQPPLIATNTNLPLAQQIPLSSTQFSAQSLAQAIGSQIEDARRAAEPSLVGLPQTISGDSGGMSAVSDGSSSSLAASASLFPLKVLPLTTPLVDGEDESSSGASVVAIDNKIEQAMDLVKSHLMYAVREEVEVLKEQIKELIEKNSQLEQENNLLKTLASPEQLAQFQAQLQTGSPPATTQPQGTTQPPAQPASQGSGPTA
UniProt Q5VTQ0: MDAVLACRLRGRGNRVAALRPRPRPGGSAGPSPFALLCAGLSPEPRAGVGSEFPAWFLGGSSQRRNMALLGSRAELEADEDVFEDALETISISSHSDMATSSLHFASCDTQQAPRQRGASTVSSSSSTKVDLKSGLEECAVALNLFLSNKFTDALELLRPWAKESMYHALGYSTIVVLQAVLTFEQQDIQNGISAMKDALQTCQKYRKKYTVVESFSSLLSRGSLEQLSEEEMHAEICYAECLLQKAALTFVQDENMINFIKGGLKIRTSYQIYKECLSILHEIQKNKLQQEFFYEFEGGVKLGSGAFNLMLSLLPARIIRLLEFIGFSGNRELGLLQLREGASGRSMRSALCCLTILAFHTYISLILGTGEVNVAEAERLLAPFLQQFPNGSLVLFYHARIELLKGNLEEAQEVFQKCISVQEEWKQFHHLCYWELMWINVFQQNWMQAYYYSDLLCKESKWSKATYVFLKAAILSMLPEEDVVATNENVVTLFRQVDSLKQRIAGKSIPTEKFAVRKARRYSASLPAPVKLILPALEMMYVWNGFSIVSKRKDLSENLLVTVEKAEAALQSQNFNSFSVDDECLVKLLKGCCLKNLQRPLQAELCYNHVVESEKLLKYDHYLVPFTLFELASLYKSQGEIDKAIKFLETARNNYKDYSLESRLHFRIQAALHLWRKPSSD
UniProt Q8NBP0: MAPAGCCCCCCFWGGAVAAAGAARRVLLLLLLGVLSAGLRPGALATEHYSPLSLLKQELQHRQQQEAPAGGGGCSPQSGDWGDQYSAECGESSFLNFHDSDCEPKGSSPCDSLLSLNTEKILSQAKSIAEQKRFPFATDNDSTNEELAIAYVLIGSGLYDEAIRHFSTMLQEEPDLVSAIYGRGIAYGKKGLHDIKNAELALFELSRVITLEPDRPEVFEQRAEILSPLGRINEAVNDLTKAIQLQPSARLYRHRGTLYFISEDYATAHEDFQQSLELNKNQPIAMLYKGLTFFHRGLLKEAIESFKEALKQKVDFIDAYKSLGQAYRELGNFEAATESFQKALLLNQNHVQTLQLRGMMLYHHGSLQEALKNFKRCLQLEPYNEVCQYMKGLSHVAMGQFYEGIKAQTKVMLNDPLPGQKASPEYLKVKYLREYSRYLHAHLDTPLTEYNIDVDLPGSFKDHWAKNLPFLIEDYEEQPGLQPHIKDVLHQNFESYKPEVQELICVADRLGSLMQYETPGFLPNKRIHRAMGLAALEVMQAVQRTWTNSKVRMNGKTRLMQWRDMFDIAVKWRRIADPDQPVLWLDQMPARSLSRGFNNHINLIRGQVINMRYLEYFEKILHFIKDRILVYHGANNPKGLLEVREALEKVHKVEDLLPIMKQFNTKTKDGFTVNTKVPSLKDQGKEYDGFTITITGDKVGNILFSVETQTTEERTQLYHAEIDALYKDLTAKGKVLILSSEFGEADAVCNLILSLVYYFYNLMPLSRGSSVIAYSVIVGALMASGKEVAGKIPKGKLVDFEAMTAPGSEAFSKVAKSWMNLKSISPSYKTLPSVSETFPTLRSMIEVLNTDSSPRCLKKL
UniProt Q96RU7: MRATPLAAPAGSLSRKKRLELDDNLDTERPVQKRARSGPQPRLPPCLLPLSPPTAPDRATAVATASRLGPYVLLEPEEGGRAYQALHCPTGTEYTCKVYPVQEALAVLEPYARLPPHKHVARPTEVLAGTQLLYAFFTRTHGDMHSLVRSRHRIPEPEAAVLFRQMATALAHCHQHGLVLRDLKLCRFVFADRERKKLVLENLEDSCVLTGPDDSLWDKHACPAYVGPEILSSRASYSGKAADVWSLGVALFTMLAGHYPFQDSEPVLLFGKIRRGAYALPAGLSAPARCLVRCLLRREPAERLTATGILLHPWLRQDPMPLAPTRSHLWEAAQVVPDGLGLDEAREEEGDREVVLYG
UniProt Q99576: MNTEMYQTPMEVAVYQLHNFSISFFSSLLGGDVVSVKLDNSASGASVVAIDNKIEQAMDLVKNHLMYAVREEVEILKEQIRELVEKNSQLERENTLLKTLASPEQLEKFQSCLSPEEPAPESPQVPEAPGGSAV
UniProt Q12899: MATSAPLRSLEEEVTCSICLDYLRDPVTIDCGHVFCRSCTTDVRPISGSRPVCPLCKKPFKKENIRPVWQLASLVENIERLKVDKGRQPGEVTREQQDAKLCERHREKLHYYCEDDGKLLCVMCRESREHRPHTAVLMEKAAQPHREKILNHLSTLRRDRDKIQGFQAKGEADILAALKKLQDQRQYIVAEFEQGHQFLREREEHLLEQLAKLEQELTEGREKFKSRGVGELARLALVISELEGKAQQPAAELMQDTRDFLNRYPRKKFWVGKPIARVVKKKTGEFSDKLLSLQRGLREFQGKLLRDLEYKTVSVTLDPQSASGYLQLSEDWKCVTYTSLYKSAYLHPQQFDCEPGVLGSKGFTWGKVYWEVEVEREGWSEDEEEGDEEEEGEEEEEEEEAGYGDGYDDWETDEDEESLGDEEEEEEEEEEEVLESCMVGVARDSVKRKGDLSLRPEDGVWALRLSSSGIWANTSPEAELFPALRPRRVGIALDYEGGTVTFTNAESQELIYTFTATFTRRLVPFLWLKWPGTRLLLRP
UniProt O14717: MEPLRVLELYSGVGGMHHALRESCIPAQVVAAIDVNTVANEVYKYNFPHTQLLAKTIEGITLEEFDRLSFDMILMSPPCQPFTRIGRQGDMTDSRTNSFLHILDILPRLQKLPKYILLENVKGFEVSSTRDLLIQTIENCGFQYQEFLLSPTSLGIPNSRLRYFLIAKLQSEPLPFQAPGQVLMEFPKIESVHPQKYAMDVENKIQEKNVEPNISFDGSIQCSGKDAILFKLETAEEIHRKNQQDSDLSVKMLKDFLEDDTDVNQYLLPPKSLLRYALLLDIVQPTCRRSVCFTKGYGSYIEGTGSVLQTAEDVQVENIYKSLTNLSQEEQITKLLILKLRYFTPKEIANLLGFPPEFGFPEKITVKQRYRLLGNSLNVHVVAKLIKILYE
UniProt Q15361: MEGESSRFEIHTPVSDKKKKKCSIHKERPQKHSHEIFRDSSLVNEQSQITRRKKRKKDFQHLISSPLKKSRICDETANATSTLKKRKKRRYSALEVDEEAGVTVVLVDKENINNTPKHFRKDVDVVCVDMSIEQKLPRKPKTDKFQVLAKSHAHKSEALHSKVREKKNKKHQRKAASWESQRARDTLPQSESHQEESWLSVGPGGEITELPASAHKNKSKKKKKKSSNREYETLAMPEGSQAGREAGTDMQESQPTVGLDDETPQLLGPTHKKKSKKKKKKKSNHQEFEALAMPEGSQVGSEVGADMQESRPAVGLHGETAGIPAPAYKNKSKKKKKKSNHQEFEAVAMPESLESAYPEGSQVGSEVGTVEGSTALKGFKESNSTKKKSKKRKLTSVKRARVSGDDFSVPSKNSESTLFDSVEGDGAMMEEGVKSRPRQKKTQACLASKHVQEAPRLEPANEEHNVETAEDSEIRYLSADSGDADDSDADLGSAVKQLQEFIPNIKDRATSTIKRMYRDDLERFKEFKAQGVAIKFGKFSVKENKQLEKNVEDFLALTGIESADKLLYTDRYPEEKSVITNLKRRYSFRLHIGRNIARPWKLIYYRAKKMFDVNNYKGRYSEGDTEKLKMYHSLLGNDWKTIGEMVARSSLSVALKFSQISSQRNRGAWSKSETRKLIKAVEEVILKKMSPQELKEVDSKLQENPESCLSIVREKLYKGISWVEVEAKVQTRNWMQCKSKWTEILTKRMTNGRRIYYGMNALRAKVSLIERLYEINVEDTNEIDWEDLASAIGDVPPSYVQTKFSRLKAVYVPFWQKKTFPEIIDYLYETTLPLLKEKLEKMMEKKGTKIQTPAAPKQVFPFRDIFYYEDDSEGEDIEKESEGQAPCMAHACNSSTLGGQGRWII
UniProt Q6ZTA4: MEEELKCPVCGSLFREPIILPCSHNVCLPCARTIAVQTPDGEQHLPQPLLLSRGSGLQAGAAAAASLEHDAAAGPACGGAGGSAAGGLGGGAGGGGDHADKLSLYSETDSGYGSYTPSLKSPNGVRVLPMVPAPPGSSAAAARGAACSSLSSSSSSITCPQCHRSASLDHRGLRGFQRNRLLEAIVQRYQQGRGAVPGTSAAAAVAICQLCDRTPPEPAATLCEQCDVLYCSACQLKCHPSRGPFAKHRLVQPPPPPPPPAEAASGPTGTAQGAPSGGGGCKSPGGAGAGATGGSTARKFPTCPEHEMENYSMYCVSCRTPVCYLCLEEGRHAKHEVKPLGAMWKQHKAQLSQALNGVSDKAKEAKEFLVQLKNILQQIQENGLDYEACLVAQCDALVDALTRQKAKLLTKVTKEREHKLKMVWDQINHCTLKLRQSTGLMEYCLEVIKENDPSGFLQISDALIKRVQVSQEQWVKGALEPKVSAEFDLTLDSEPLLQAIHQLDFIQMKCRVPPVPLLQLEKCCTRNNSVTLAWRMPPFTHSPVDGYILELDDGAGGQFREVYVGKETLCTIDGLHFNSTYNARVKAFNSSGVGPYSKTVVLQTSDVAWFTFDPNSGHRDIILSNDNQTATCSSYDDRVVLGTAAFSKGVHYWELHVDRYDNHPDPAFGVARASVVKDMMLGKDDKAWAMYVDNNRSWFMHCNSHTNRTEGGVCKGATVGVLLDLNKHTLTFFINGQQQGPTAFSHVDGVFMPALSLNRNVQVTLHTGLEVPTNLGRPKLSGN
UniProt Q629K1: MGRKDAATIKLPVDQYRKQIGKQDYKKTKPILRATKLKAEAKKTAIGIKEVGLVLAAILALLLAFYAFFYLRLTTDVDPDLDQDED

Legend:
Test in all cases: log2 fold change, soluble protein after heating vs DMSO (PISA); higher = thermal stabilisation; K562 lysate, 10 uM; active = over 0.2 and 3.5 SD of the protein, either way, in both replicates (recomputed)
[1] = compound: CNC(=O)C1=CC=CC=C1NC2=NC(=NC=C2Cl)NC3=C(C=C(C=C3)N4CCOCC4)OC
In short: (§1)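 K562 pellets were dounce-homogenised in PBS pH 7.4 with 1 mM MgCl2, and the crude extract at 1 mg/mL protein was treated with 10 μM compound for 30 min. Aliquots were heated for 3 min across 48°C-58°C, pooled, and brought to 0.5% NP-40 at 4°C; soluble protein was the supernatant after 21,000xg for 90 min. Soluble protein was quantified by TMTpro 16plex LC-MS/MS with channel sums equalised, and reported as log2 fold change in thermal stability against DMSO controls, with values from duplicates.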

encorafenib = compound: COC(=O)N[C@@H](C)CNc1nccc(-c2cn(C(C)C)nc2-c2cc(Cl)cc(NS(C)(=O)=O)c2F)n1 [encorafenib]
In short: as §1

[2] = compound: COC(=O)[C@H](CCSC)NC(=O)C1=C(C=C(C=C1)NC[C@H](CS)N)C2=CC=CC=C2
In short: as §1

crizotinib = compound: C[C@@H](Oc1cc(-c2cnn(C3CCNCC3)c2)cnc1N)c1c(Cl)ccc(F)c1Cl [crizotinib]
In short: as §1

tozasertib = compound: Cc1cc(Nc2cc(N3CCN(C)CC3)nc(Sc3ccc(NC(=O)C4CC4)cc3)n2)n[nH]1 [tozasertib]
In short: as §1

doramapimod = compound: Cc1ccc(-n2nc(C(C)(C)C)cc2NC(=O)Nc2ccc(OCCN3CCOCC3)c3ccccc23)cc1 [doramapimod]
In short: as §1

defactinib = compound: CNC(=O)c1ccc(Nc2ncc(C(F)(F)F)c(NCc3nccnc3N(C)S(C)(=O)=O)n2)cc1 [defactinib]
In short: as §1

alisertib = compound: COc1cc(Nc2ncc3c(n2)-c2ccc(Cl)cc2C(c2c(F)cccc2OC)=NC3)ccc1C(=O)O [alisertib]
In short: as §1

gefitinib = compound: COc1cc2ncnc(Nc3ccc(F)c(Cl)c3)c2cc1OCCCN1CCOCC1 [gefitinib]
In short: as §1

pictilisib = compound: CS(=O)(=O)N1CCN(Cc2cc3nc(-c4cccc5[nH]ncc45)nc(N4CCOCC4)c3s2)CC1 [pictilisib]
In short: as §1

bafetinib = compound: Cc1ccc(NC(=O)c2ccc(CN3CC[C@H](N(C)C)C3)c(C(F)(F)F)c2)cc1Nc1nccc(-c2cncnc2)n1 [bafetinib]
In short: as §1

Tubastatin A = compound: CN1CCc2c(c3ccccc3n2Cc2ccc(C(=O)NO)cc2)C1 [Tubastatin A]
In short: as §1

[3] = compound: CNc1nc(-c2ccc3c(N)n[nH]c3c2)cc(N2C[C@@H](C(=O)NC3CCCCC3)CC[C@H]2C)n1
In short: as §1

[4] = compound: COc1cc2nc(-c3cc(F)ccc3O)nc(N[C@@H]3CNC[C@H]3C(C)(C)O)c2cc1OC
In short: as §1

lapatinib = compound: CS(=O)(=O)CCNCc1ccc(-c2ccc3ncnc(Nc4ccc(OCc5cccc(F)c5)c(Cl)c4)c3c2)o1 [lapatinib]
In short: as §1

duvelisib = compound: C[C@H](Nc1ncnc2nc[nH]c12)c1cc2cccc(Cl)c2c(=O)n1-c1ccccc1 [duvelisib]
In short: as §1

alvocidib = compound: CN1CC[C@H](c2c(O)cc(O)c3c(=O)cc(-c4ccccc4Cl)oc23)[C@H](O)C1 [alvocidib]
In short: as §1

[5] = compound: C[C@H](C1=CC=C(C=C1)C(=O)NC2=C3C=CNC3=NC=C2)N
In short: as §1

gandotinib = compound: Cc1cc(Nc2cc(CN3CCOCC3)c3nc(C)c(Cc4ccc(Cl)cc4F)n3n2)n[nH]1 [gandotinib]
In short: as §1

[6] = compound: Cc1cccc(CC(=O)N2CCc3c2ccc(-c2cn(C)c4ncnc(N)c24)c3F)n1
In short: as §1

Measured: log2 fold change

TTBK2 (UniProt Q6IQ55)
inactive: [1] 0.094 | encorafenib 0.008 | [2] -0.118 | crizotinib -0.111 | tozasertib 0.091 | doramapimod 0.09

TTC28 (UniProt Q96AY4)
inactive: [1] 0.045 | defactinib 0.132 | alisertib 0.058 | gefitinib 0.215 | pictilisib -0.324 | crizotinib -0.093 | doramapimod 0.096 | bafetinib 0.041

TRMT44 (UniProt Q8IYL2)
inactive: crizotinib -0.14 | doramapimod 0.016

TTLL4 (UniProt Q14679)
inactive: Tubastatin A -0.193 | alisertib -0.059 | gefitinib 0.01

TSC22D1 isoform 2 (UniProt Q15714)
inactive: Tubastatin A -0.001 | encorafenib 0.099 | [2] -0.439 | crizotinib -0.021 | tozasertib -0.047 | doramapimod 0.027

TTC39B (UniProt Q5VTQ0)
inactive: Tubastatin A -0.03 | [1] -0.095 | defactinib 0.112 | [3] -0.145 | [4] 0.005 | lapatinib -0.093 | pictilisib 0.003 | duvelisib 0.173 | bafetinib -0.182

TTC13 (UniProt Q8NBP0)
inactive: Tubastatin A 0.013 | defactinib -0.225 | [4] 0.275 | lapatinib 0.03 | pictilisib -0.087 | crizotinib -0.08 | doramapimod 0.096 | bafetinib -0.263

TRIB3 (UniProt Q96RU7)
inactive: [1] -0.038 | [3] -0.218 | encorafenib -0.019 | [2] -0.042 | duvelisib 0.098 | tozasertib -0.137

TSPYL6 (UniProt Q8N831)
inactive: Tubastatin A 0.06 | [1] -0.03 | [3] -0.095 | duvelisib 0.017

TRAF1 (UniProt Q13077)
inactive: Tubastatin A 0.079

TRAF5 isoform 2 (UniProt O00463)
inactive: Tubastatin A 0.373 | [1] 0.065 | encorafenib 0.093 | [2] -0.444 | tozasertib -0.065

TTC30B (UniProt Q8N4P2)
inactive: alvocidib 0.103 | defactinib 0.283 | encorafenib -0.069 | [2] 0.43 | crizotinib -0.024 | [5] 0.045 | gandotinib -0.15 | tozasertib -0.066 | doramapimod 0.003 | [6] 0.162

TSC22D3 isoform 3 (UniProt Q99576)
inactive: Tubastatin A -0.553 | [1] 0.162 | crizotinib 0.101 | doramapimod -0.065

TSPAN31 (UniProt Q12999)
inactive: defactinib -0.009 | [3] -0.013 | crizotinib 0.071 | duvelisib -0.114 | doramapimod -0.069

TTC7A isoform 4 (UniProt Q9ULT0)
inactive: alisertib 0.085 | gefitinib 0.043

TRAM2 (UniProt Q15035)
inactive: Tubastatin A -0.039 | [4] -0.111 | lapatinib -0.264 | crizotinib 0.01 | doramapimod -0.126

TRIM68 (UniProt Q6AZZ1)
inactive: [1] 0.121 | encorafenib -0.346 | [2] -0.005 | alisertib 0.065 | gefitinib -0.052 | crizotinib -0.322 | tozasertib 0.119 | doramapimod 0.289

TRIM26 (UniProt Q12899)
inactive: Tubastatin A 0.151 | alisertib 0.158 | [4] -0.231 | gefitinib -0.067 | lapatinib 0.097 | crizotinib -0.28 | doramapimod 0.099

TSPAN4 (UniProt O14817)
inactive: Tubastatin A -0.064 | [1] 0.098 | defactinib 0.015 | encorafenib 0.029 | [2] 0.075 | crizotinib 0.013 | tozasertib -0.012 | doramapimod 0.012

TRAF3IP1 (UniProt Q8TDR0)
inactive: Tubastatin A 0.014 | [1] -0.064 | defactinib -0.009 | [3] -0.166 | encorafenib 0.079 | [2] -0.065 | [4] -0.017 | lapatinib 0.011 | pictilisib -0.032 | crizotinib 0.093 | duvelisib 0.112 | tozasertib 0.039 | doramapimod -0.044 | bafetinib -0.124

TTC17 isoform 2 (UniProt Q96AE7)
inactive: alvocidib 0.051 | [5] -0.635 | gandotinib 0.033 | [6] 0.271

TRDMT1 (UniProt O14717)
inactive: Tubastatin A 0.071 | [1] -0.06 | defactinib 0.009 | [3] -0.047 | encorafenib 0.181 | [2] -0.168 | alisertib 0.081 | [4] 0.128 | gefitinib -0.041 | lapatinib -0.22 | crizotinib -0.003 | duvelisib 0.152 | tozasertib -0.098 | doramapimod 0.028

TRIM37 (UniProt O94972)
inactive: Tubastatin A -0.205 | [1] -0.081 | [3] 0.195 | encorafenib 0.161 | [2] 0.036 | crizotinib -0.007 | duvelisib -0.096 | tozasertib 0.105 | doramapimod -0.091

TRAPPC2L (UniProt H3BQQ8)
inactive: pictilisib 0.017 | bafetinib -0.058

TRIM3 (UniProt O75382)
inactive: [1] 0.06 | defactinib -0.095 | encorafenib 0.034 | [2] 0.041 | [4] 0.069 | lapatinib 0.009 | tozasertib -0.056

TTF1 (UniProt Q15361)
inactive: encorafenib 0.339 | [2] 0.3 | alisertib -0.024 | gefitinib -0.151 | tozasertib -0.136

Taken from the listing (2 entries):
TRDMT1 (UniProt O14717)
inactive: Tubastatin A 0.071 | [1] -0.06 | defactinib 0.009 | [3] -0.047 | encorafenib 0.181 | [2] -0.168 | alisertib 0.081 | [4] 0.128 | gefitinib -0.041 | lapatinib -0.22 | crizotinib -0.003 | duvelisib 0.152 | tozasertib -0.098 | doramapimod 0.028

TRIM37 (UniProt O94972)
inactive: Tubastatin A -0.205 | [1] -0.081 | [3] 0.195 | encorafenib 0.161 | [2] 0.036 | crizotinib -0.007 | duvelisib -0.096 | tozasertib 0.105 | doramapimod -0.091

Following part

TRIM67 (UniProt Q6ZTA4)
inactive: Tubastatin A -0.272 | [1] -0.02 | encorafenib -0.076 | [2] -0.047 | [4] 0.303 | lapatinib -0.031 | tozasertib 0.071

TRIM16 (UniProt O95361)
inactive: [1] -0.052 | [3] 0 | encorafenib 0.037 | [2] -0.164 | duvelisib 0.08 | tozasertib 0.008

TRIQK (UniProt Q629K1)
inactive: Tubastatin A -0.014 | [1] 0.075 | [3] -0.125 | encorafenib -0.137 | [2] -0.489 | [4] -0.065 | lapatinib -0.009 | pictilisib 0.011 | crizotinib 0.009 | duvelisib -0.293 | tozasertib 0.12 | doramapimod -0.038 | bafetinib -0.033
